# Reference: US20110144056A1, “PYRAZOLE DERIVATIVES USEFUL AS INHIBITORS OF FAAH” (priority 2008, published 2011)
# By UniProt entry, the sequences of proteins in these tests, tags left out.
# UniProt O00519, whole entry: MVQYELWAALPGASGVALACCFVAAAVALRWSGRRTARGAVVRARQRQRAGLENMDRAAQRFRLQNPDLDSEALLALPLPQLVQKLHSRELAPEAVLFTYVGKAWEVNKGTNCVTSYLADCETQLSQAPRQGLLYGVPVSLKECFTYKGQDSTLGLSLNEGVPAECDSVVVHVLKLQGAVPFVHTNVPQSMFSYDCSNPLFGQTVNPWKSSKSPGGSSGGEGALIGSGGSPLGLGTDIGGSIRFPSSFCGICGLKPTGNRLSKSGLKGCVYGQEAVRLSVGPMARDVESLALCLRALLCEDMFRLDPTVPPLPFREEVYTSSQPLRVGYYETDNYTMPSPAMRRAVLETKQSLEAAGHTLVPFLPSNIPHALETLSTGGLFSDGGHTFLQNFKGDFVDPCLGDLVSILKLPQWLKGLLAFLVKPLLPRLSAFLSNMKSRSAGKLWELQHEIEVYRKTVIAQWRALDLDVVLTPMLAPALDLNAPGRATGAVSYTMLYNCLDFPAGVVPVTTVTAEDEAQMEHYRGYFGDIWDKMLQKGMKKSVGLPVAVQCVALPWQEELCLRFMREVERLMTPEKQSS
# Structures were worked out from names or drawings and are uncertain.
# Target: T1, FAAH (Homo sapiens, UniProt O00519)
# Test: FAAH whole cell assay, CHO cells expressing human FAAH
# Details: read-out: FAAH Human Whole Cell IC50
# Description: (§1) To assist in assay development stable cell lines for human, murine and rat full length FAAH were developed. Human FAAH cDNA (Accession No: NM_001441.1) was purchased from Origene (Rockville, Md.). The full length FAAH was subcloned into the mammalian expression vector, pcDEF.neo, using XbaI and […] restriction sites and used for stable cell line generation.
# Murine (accession number NM_010173) and Rat FAAH (accession number NM_024132) was amplified by reverse transcriptase polymerase chain reaction (RT-PCR) from brain cDNA (BD Biosciences, San Jose, Calif.) using primers 1 and 2 or primers 1 and 3 respectively (see Table). The resulting PCR product was ligated into pCR4TOPO and DNA sequence confirmed. […] Following selection in geneticin, individual clones were selected and FAAH activity was assessed using a whole cell fluorescent anandamide assay, modified from Ramarao et al (2005). […] Release of fluorescence was monitored in a CytoFluor Multiplate Reader. […]
# Assays are performed on either cell lysate or microsome fractions prepared as described or in whole cell format employing either the fluorescent substrate AAMCA (Cayman chemical, Ann Arbor, Mich.,) or ^3H-anandmaide ([ETHANOLAMINE-1-3H]American Radiolabeled Chemicals; 1 mCi/ml). […] Fluorescent release as a measure of FAAH activity was monitored by reading the plate in a CytoFluor Multiplate Reader (Ex: 360/40 nM; Em: 460/40 nM). […]
row,SMILES,IC50 [nM]
1,CCOC(=O)c1ccc2cc(-c3c(Sc4ccc(Cl)cc4)cnn3C3CCCCO3)ccc2n1 (stereo not shown),3.6

# Target: T1, FAAH
# Test: FAAH enzyme assay, lysate of CHO cells expressing human FAAH
# Details: read-out: FAAH Human Cell Lysate IC50
# Description: as §1
# CHO cells expressing FAAH were used to prepare either crude cell lysate or microsome fractions. To harvest cells, tissue culture media was decanted, the monolayer washed three times with Ca^++Mg^++ free PBS and cells recovered after 15 min in enzyme free dissociation media (Millipore Corp, Billerica, Mass.). Cells were collected by centrifuging at 2000 rpm for 15 min. and the cell pellet re-suspended with 50 mM HEPES (pH 7.4) containing 1 mM EDTA and the protease inhibitors aprotinin (1 mg/ml) and leupeptin (100 μM). The suspension was sonicated at 4° C. and the cell lysate recovered after centrifuging at 12,000×g (14,600 rpm, SS34 rotor) for 20 min at 4° C. to form a crude pellet of cell debris, nuclei, peroxisomes, lysosomes, and mitochondria; the supernatant or cell lysate was used for FAAH enzyme assay. In some cases, microsomes fractions enriched in FAAH were prepared by centrifuging the cell lysate further at 27,000 rpm (100,000×g) in SW28 rotor for 50 minutes at 4° C. The pellet containing FAAH-enriched microsomes was re-suspend in 50 mM HEPES, (pH 7.4) 1 mM EDTA, and any remaining DNA sheared by passage of material through a 23 gauge needle and aliquots of enzyme were store at −80° C. prior to use.
# (American Radiolabeled Chemicals; 1 mCi/ml) with FAAH (Life Sciences (1995), 56, 1999-2005 and Journal of Pharmacology and Experimented Therapeutics (1997), 283, 729-734), Analytical. Biochemistry (2003), 318, 270-5. In addition, routine assays were performed monitoring hydrolysis of arachidonyl-7-amino-4-methylcoumarin amide (AAMCA) by following increase in fluorescence upon release of 7-amino 4-methyl coumarin (λEX=355 nm, (λEM=460 nm). Analytical. Biochemistry (2005). 343, 143-51.
# Assays are performed on either cell lysate or microsome fractions prepared as described or in whole cell format employing either the fluorescent substrate AAMCA (Cayman chemical, Ann Arbor, Mich.,) or ^3H-anandmaide ([ETHANOLAMINE-1-3H]American Radiolabeled Chemicals; 1 mCi/ml). The cell lysate or microsome assay is performed in Costar black wall, clear bottom plates by adding FAAH_CHO (whole cell, cell lysate or microsome) in assay buffer (50 mM Phosphate, pH 8.0, 1 mM EDTA, 200 mM KCl, 0.2% glycerol, 0.1% fatty acid free BSA) to each well, followed by either DMSO or compound and allowed to incubate at 22-25° C. for fifteen minutes. AAMCA substrate was used to achieve a final concentration of 1 μM and reaction allowed to proceed at room temperature for 1-3 hours. Fluorescent release as a measure of FAAH activity was monitored by reading the plate in a CytoFluor Multiplate Reader ([…]). Whole cell assay is conducted with cells harvested after rinsing tissue culture flasks three times with Ca^++Mg^++ free PBS, incubating for 10 mm in Enzyme free dissociation media and centrifuging for 5 minutes at 1,000 rpm in table top centrifuge. Cells are resuspended in assay buffer at desired cell number in (4×10^4 cells/assay in 96-well format; 1×10^4 cells/assay in 384-well format) and assayed as described.
# Alternatively, assays are performed using anandamide [ethanolamine 1-^3H] (specific activity of 10 Ci/mmol) diluted with cold anandamide to achieve a final assay concentration of 1 μM anandamide (˜50,000 cpm). Enzyme (CHO cell lysate, brain or liver homogenate) is incubated in assay buffer (50 mM Phosphate, pH 8.0, 1 mM EDTA, 200 mM KCl, 0.2% glycerol, 0.1% fatty acid free BSA) with inhibitor at 25° C. for 30 minutes. The reaction was terminated by addition of 2 volumes of chloroform:methanol (1:1) and mixed by vortexing. […]
row,SMILES,IC50 [nM]
1,CCNC(=O)c1ccc2cc(-c3nn(C)cc3Sc3ccc(Cl)cc3)ccc2n1,1.89
2,CCOC(=O)c1cnc2cc(-c3nn(-c4ccc(F)cc4)cc3Sc3ccc(Cl)cc3)ccc2c1,5.1
3,OCc1cnc2cc(-c3nn(-c4ccc(F)cc4)cc3Sc3ccc(Cl)cc3)ccc2c1,6.7
4,CCOC(=O)c1cnc2cc(-c3n[nH]cc3Sc3ccc(Cl)cc3)ccc2c1,8.5
5,CC(=O)N1CCc2cc(-c3nn(-c4ccccn4)cc3Sc3ccc(Cl)cc3)ccc2C1,5.3
6,CCNC(=O)c1ccc2cc(-c3nn(CC)cc3Sc3ccc(Cl)cc3)ccc2n1,5
7,CC(=O)N1CCc2cc(-c3nn(C)cc3Sc3ccc(Cl)cc3)ccc2C1,64
8,"O=C1NCCc2cc(-c3nn(-c4ccc(F)cc4)cc3Sc3ccc(Cl)cc3)ccc21 [Example 308, 6-{4-[(4-chlorophenyl)sulfanyl]-1-(4-fluorophenyl)-1H-pyrazol-3-yl}-3,4-dihydroisoquinolin-1(2H)-one]",6.7
9,FC(F)c1ccc2cc(-c3n[nH]cc3Sc3ccc(Cl)cc3)ccc2n1,88
